From patent US8457712B2, “Multi-mode medical device system and methods of manufacturing and using same” (Wisconsin Alumni Research Foundation, priority 2005, dated 2013)
For at least one compound, name, drawing or mass did not settle the structure.

Test: Diffusion of a fluorescent probe in swollen gelatin gel by FRAP
Format: physicochemical
Conditions: room temperature
From the text: To assess the stability of DTPA[Gd(III)] in the gelatin coating, the diffusion of a fluorescence probe in gelatin was studied by the technique of fluorescence recovery after photobleaching (FRAP). The instrument and data analysis scheme are described in Kim, S. H. and Yu, H., J. Phys. Chem. 1992, 96, 4034, which is hereby fully incorporated by reference. Fluorescein was used as the fluorescence probe due, in part, to its molecular size being roughly the same as that of DTPA[Gd(III)]. The focus of the study was to examine the possible retardation effects of gelatin concentration and cross-link density on the diffusion, which was determined at room temperature, i.e., below the gel point of gelatin. The diffusion of fluorescein probe slows down with the increase of gelatin concentration. The diffusion coefficient decreases from 1.5×10-10 to 9×10-12 […]-1 when the concentration of gelatin increases from 9% to 40%. […] Accordingly, the probe diffusion is more likely controlled by the concentration of gelatin rather than the cross-link density. On the other hand, the cross-link density may determine the swelling ratio of gelatin, i.e., the concentration of gelatin in aqueous solution. […]

Compound: O=C1OC2(c3ccc(O)cc3Oc3cc(O)ccc32)c2ccccc21 [fluorescein]
- diffusion coefficient in gelatin (gelatin concentration 9%): 1.5×10-10 m2s-1
- diffusion coefficient in gelatin (gelatin concentration 40%): 9×10-12 m2s-1
